{
  "source": "patent US8163793B2",
  "about": "“Proline derivatives” (Hoffman-La Roche Inc., priority 2009, dated 2012)",
  "key": {"Cathepsin S": {"target": "Cathepsin S (UniProt P25774)", "test": "Cathepsin enzyme inhibition assay (fluorogenic peptide substrate Z-Val-Val-Arg-AMC), Cathepsin S", "assay_type": "biochemical, human and mouse", "details": "enzyme 1 nM, substrate 20 μM, pH 6.5; read-out: CatS IC50", "experimental": "(§1) Cathepsin Enzyme Inhibition Assay\n(§2) Enzyme activity is measured by observing the increase in fluorescence intensity caused by cleavage of a peptide substrate containing a fluorophore whose emission is quenched in the intact peptide.\n(§3) Assay buffer: 100 mM potassium phosphate pH 6.5, EDTA-Na 5 mM, Triton X-100 0.001%, DDT 5 mM.\n(§4) Enzymes (all at 1 nM): human and mouse Cathepsin S, Cat K, Cat B, Cat L Substrate (20 μM): Z-Val-Val-Arg-AMC, except for Cat K which uses Z-Leu-Arg-AMC (both from Bachem).\n(§5) AMC=7-Amino-4-Methyl-Coumarin.\nEnzyme is added to the substance dilutions in 96-well microtitre plates and the reaction is started with substrate. […] IC50 are calculated by standard methods. The results are expressed in μM in the following table."}, "Cat L": {"target": "Cat L (UniProt P07711)", "test": "Cathepsin enzyme inhibition assay (fluorogenic peptide substrate Z-Val-Val-Arg-AMC), Cathepsin L", "assay_type": "biochemical, human and mouse", "details": "enzyme 1 nM, substrate 20 μM, pH 6.5; read-out: CatL IC50", "experimental": "as §1, §2, §3, §4, §5\nExcitation 360 nm, Emission 465 nm.\nEnzyme is added to the substance dilutions in 96-well microtitre plates and the reaction is started with substrate. Fluorescence emission is measured over 20 minutes, during which time a linear increase is observed in the absence of inhibitor. IC50 are calculated by standard methods. The results are expressed in μM in the following table."}},
  "note": "Structures can show the parent of a compound that is named as a salt.",
  "data": [
    {"smiles": "N#CC1(NC(=O)[C@@H]2C[C@@H](S(=O)(=O)c3ccccc3Cl)CN2)CC1", "note": "[Example 42, (2S,4R)-4-(2-Chloro-benzenesulfonyl)-pyrrolidine-2-carboxylic acid (1-cyano-cyclopropyl)-amide Hydrochloride]", "values": [
      {"measurement": "IC50", "setting": "Cathepsin S", "value": 0.005, "unit": "µM"},
      {"measurement": "IC50", "setting": "Cat L", "value": 9.43, "unit": "µM"}
    ]}
  ]
}
